# Ends that are not written are not given here.
# Assay: general procedure: Fmoc solid-phase peptide synthesis; Fmoc-Val-PEG Resin; HBTU, HOBt and NMM
# Settings: whole synthesis, RP-HPLC profile, scale of the general procedure 2.4 g resin
sequence,measurement,value
GMMCVTHCNG (cysteine pairing not given here),final HPLC purity,99%
